PubChem BioAssay AID1259308, NCATS, 2017
The deposit covers about 59,000 reagents; below is a random part of them. About 1,510 of them (2.6%) were called active. 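Calls use total luciferase alone and ignore viability, so some active siRNAs may act by altering cell number.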 Reagents against one gene are numbered here. Not all columns of the deposit are shown.

- Screen: 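Genes whose loss raises luciferase production in HEK293 cells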 (primary screen)
- System: human HEK293 embryonic kidney cells stably expressing firefly luciferase (HEK-CMV-Luc2-Hygro)
- Knock-down reagent: single siRNA against human genes, 0.8 pmol siRNA per well
- Time to read-out: 72 h
- Read-out: 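Reporter luminescence and viable-cell signal on separate replicate plates, given as percent of non-targeting control and median/MAD z-scores, plus per-cell luciferase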
- Direction: total luciferase, z-score and total luciferase, % of control: higher = more reporter protein produced
- Active means: 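Active when the median/MAD z-score for overall luciferase is greater than 3; a gene was taken forward for validation with new siRNAs if at least two of its three siRNAs passed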
- Meaning of the calls: active = raised luciferase; inactive = no rise

| Gene | reagent | total luciferase, z-score | total luciferase, % of control | call |
| --- | --- | --- | --- | --- |
| TUBA1C (tubulin alpha 1c) | 1 | 0.824 | 98.3 | inactive |
| TUBA1C (tubulin alpha 1c) | 2 | -0.024 | 81.4 | inactive |
| TUBA1C (tubulin alpha 1c) | 3 | 0.636 | 94.5 | inactive |
| C19orf38 (chromosome 19 open reading frame 38) | 1 | -0.855 | 64.9 | inactive |
| C19orf38 (chromosome 19 open reading frame 38) | 2 | 3.5 | 152 | active |
| C19orf38 (chromosome 19 open reading frame 38) | 3 | 0.349 | 88.8 | inactive |
| GFI1 (growth factor independent 1 transcriptional repressor) | 1 | 0.653 | 94.9 | inactive |
| GFI1 (growth factor independent 1 transcriptional repressor) | 2 | -1.39 | 54.2 | inactive |
| GFI1 (growth factor independent 1 transcriptional repressor) | 3 | 0.754 | 96.9 | inactive |
| LRATD2 (LRAT domain containing 2) | 1 | 0.677 | 95.3 | inactive |
| LRATD2 (LRAT domain containing 2) | 2 | -0.182 | 78.3 | inactive |
| LRATD2 (LRAT domain containing 2) | 3 | -0.34 | 75.1 | inactive |
| RNF8 (ring finger protein 8) | 1 | 0.3 | 87.8 | inactive |
| RNF8 (ring finger protein 8) | 2 | -0.46 | 72.7 | inactive |
| RNF8 (ring finger protein 8) | 3 | -0.606 | 69.8 | inactive |
| UBR4 (ubiquitin protein ligase E3 component n-recognin 4) | 1 | 1.33 | 108 | inactive |
| UBR4 (ubiquitin protein ligase E3 component n-recognin 4) | 2 | 1.02 | 102 | inactive |
| UBR4 (ubiquitin protein ligase E3 component n-recognin 4) | 3 | -0.0882 | 80.1 | inactive |
| NCAPD2 (non-SMC condensin I complex subunit D2) | 1 | -0.294 | 76 | inactive |
| NCAPD2 (non-SMC condensin I complex subunit D2) | 2 | 0.239 | 86.6 | inactive |
| NCAPD2 (non-SMC condensin I complex subunit D2) | 3 | -0.246 | 77 | inactive |
| RNF7 (ring finger protein 7) | 1 | 1.46 | 111 | inactive |
| RNF7 (ring finger protein 7) | 2 | 2.44 | 130 | inactive |
| RNF7 (ring finger protein 7) | 3 | 4.01 | 162 | active |
| LINC00598 (long independently transcribed non-coding RNA 598) | 1 | -1.02 | 61.7 | inactive |
| LINC00598 (long independently transcribed non-coding RNA 598) | 2 | -0.00211 | 81.8 | inactive |
| LINC00598 (long independently transcribed non-coding RNA 598) | 3 | -0.502 | 71.9 | inactive |
| OXER1 (oxoeicosanoid receptor 1) | 1 | 0.689 | 95.6 | inactive |
| OXER1 (oxoeicosanoid receptor 1) | 2 | 1.02 | 102 | inactive |
| OXER1 (oxoeicosanoid receptor 1) | 3 | -0.695 | 68.1 | inactive |
| FAM241A (family with sequence similarity 241 member A) | 1 | 0.113 | 84.1 | inactive |
| FAM241A (family with sequence similarity 241 member A) | 2 | -1.09 | 60.2 | inactive |
| FAM241A (family with sequence similarity 241 member A) | 3 | -0.242 | 77.1 | inactive |
| ADH4 (alcohol dehydrogenase 4 (class II), pi polypeptide) | 1 | -0.944 | 63.1 | inactive |
| ADH4 (alcohol dehydrogenase 4 (class II), pi polypeptide) | 2 | 2.98 | 141 | inactive |
| ADH4 (alcohol dehydrogenase 4 (class II), pi polypeptide) | 3 | -0.516 | 71.6 | inactive |
| CBX8 (chromobox 8) | 1 | -0.225 | 77.4 | inactive |
| CBX8 (chromobox 8) | 2 | -0.941 | 63.2 | inactive |
| CBX8 (chromobox 8) | 3 | -1.79 | 46.3 | inactive |
| SAXO6 (stabilizer of axonemal microtubules 6) | 1 | -1.85 | 45.1 | inactive |
| SAXO6 (stabilizer of axonemal microtubules 6) | 2 | 1.17 | 105 | inactive |
| SAXO6 (stabilizer of axonemal microtubules 6) | 3 | 0.0462 | 82.8 | inactive |
| IDH3B | 1 | -0.458 | 72.8 | inactive |
| IDH3B | 2 | -0.504 | 71.9 | inactive |
| IDH3B | 3 | -0.0242 | 81.4 | inactive |
| DAZL (deleted in azoospermia like) | 1 | -0.652 | 68.9 | inactive |
| DAZL (deleted in azoospermia like) | 2 | -1.68 | 48.4 | inactive |
| DAZL (deleted in azoospermia like) | 3 | 0.431 | 90.5 | inactive |
| SCN3B (sodium voltage-gated channel beta subunit 3) | 1 | -0.4 | 73.9 | inactive |
| SCN3B (sodium voltage-gated channel beta subunit 3) | 2 | -2.57 | 30.8 | inactive |
| SCN3B (sodium voltage-gated channel beta subunit 3) | 3 | -1.02 | 61.6 | inactive |
| NAP1L4 (nucleosome assembly protein 1 like 4) | 1 | 0.342 | 88.7 | inactive |
| NAP1L4 (nucleosome assembly protein 1 like 4) | 2 | -0.158 | 78.7 | inactive |
| NAP1L4 (nucleosome assembly protein 1 like 4) | 3 | -0.591 | 70.1 | inactive |
| IFI35 (interferon induced protein 35) | 1 | 0.479 | 91.4 | inactive |
| IFI35 (interferon induced protein 35) | 2 | 0.139 | 84.6 | inactive |
| IFI35 (interferon induced protein 35) | 3 | -0.752 | 66.9 | inactive |
